1 molecule from paper PMC12992657 can be followed below.

This test addresses T1, Potassium chloride cotransporter (KCC2) (mouse (endogenous in cortex and hippocampus)) (UniProt Q91V14).
T1 sequence: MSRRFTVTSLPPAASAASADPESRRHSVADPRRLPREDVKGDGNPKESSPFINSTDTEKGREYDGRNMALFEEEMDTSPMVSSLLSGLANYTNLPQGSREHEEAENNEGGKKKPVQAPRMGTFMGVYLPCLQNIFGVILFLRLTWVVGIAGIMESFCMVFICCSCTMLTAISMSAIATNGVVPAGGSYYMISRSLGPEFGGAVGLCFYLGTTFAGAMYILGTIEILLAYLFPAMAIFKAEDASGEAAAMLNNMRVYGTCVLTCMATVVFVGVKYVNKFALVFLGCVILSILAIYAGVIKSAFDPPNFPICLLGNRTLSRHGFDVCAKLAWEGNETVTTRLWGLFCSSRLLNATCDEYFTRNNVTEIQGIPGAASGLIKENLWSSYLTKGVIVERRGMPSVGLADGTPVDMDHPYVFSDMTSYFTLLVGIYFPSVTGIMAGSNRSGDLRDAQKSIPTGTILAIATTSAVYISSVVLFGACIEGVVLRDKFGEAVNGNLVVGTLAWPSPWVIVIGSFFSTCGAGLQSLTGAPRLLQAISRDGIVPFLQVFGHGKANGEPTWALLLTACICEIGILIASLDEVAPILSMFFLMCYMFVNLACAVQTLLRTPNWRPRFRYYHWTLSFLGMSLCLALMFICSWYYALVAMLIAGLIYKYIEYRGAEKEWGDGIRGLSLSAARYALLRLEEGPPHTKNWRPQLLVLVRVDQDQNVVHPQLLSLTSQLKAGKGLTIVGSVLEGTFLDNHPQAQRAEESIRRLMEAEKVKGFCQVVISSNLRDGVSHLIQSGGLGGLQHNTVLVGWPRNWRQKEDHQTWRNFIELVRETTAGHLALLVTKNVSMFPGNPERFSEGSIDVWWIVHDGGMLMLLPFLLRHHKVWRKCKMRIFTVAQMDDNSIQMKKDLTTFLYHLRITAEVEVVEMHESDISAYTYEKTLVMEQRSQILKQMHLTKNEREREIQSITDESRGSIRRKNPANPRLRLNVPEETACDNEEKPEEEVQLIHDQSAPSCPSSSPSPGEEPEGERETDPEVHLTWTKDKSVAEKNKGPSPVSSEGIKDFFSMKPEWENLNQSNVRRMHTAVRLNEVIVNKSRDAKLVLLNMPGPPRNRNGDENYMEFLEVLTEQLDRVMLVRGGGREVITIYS
Description: co-IP; KCC2 antibody or nonimmune mouse IgG cross-linked to Protein G Dynabeads; purified plasma membrane preparations of cortex and hippocampus of WT and Cdkl5 KO mice; precipitate immunoblotted with CDKL5 antibody.

No constants are given. Whether binding was seen depends on the method and setting. Binding seen in cells or lysates may run through a third protein. Some entries that bind do so weakly or less than the wild type.

B1: Cyclin-dependent kinase-like 5 (CDKL5) (protein, UniProt Q3UTQ8 1-938)
chain: MKIPNIGNVMNKFEILGVVGEGAYGVVLKCRHKETHEIVAIKKFKDSEENEEVKETTLRELKMLRTLKQENIVELKEAFRRRGKLYLVFEYVEKNMLELLEEMPNGVPPEKVKSYIYQLIKAIHWCHKNDIVHRDIKPENLLISHNDVLKLCDFGFARNLSEGNNANYTEYVATRWYRSPELLLGAPYGKSVDMWSVGCILGELSDGQPLFPGESEIDQLFTIQKVLGPLPSEQMKLFYSNPRFHGLRFPAVNHPQSLERRYLGILNSVLLDLMKNLLKLDPADRYLTEQCLNHPTFQTQRLLDRSPSRSTKRKPYHVESSTLSNRNQSTKGAALQTHHRSNSKDIQNLSVGLPRAEEGLPANESFLNGNLAGATLSPMHTKTYQASTQPGSSSKDLTNNNIPHLLSPKEAKSKTEFDFNIDTKPSEGPGTKYLKSSTRSQQNRHSFMESSQSKAGTLQPSEKQSRHSYIDTIPQSSRSPSYRTKAKSHGALSDSKSVSNLSEARAQITETNTSRYFPSSCLDLNSPTSPTPTRHTDTRTLLSPSGRNNRNEGTLDSRRTTTRHSKTMEELKLPEHMDSSHSHSLSAPHESFSYGLGYTSPFSSQQRPHRHSMYVTRDKVRAKGLDGSLSIGQGMAARANSLQLLSPQPGEQLPPEMTVARPSVKESSREGASSFHTRQKSEGGVYHDPHSDDGTAPKENRHLYNDPVPRRVGSFYRVPSPRPDNSFHENNVSTRVSSLPSDSSSGTNHSKRQPGFDPWKSPENISHADQLKEKEKQGFFRSMKKKKKKTQTVPNTDGPDLLTLQKAIHSSSTASSRPKEWRPEKLSDLQTQSQPLKSLRKLLHLSSSTNHPASSDPRFQPLTAQQAKNSFSEIRIHPLSQATGGSSNIRQEPTPKGRPALQLPGSSLLRYNGWKHSRSRSSQPDEVIFLASHEKWKQ
Take B1: the binding result is on record as “binds”.
